Test results from patent publication US6362352B1, “F18-labeled thia fatty acids and methods of making and using the same” (Duke University, priority 1999, dated 2002).
Some results were stated once for a whole list of compounds, not compound by compound. For at least one compound, name, drawing or mass did not settle the structure.

Test system: isolated rat hearts
Assay: Tracer uptake versus palmitate beta-oxidation rate in isolated perfused rat hearts
Design: species or system Sprague Dawley rats
Details: Langendorff perfusion, 0.15 mM palmitate, 5 mM glucose; both normoxic (95% oxygen) and hypoxic (35% oxygen) conditions
Description: Model 4-thia analogs (16-[^18F]fluoro-4-thia-hexadecanoic acid and 12-[^18F]fluoro-4-thia-dodecanoic acid) were examined as tracers in isolated rat hearts. The perfusate was Krebs-Hensleit buffer with 1% albumin, 0.15 mM palmitate, and 5 mM glucose. Sprague Dawley rats (200-225 g) were fed ad libetum. The hearts were excised from pentobarbital-anesthetized animals and perused at 7 ml/min in Langendorff retrograde fashion. The perfusate was gassed with either 95% oxygen (normoxic) or 35% oxygen (hypoxic) gas mixture. The gases comprising the remaining fraction were nitrogen and carbon dioxide (5% for both). The tracer was administered as a bolus or as a pulse infusion into the isolated rat hearts. Pulse infusion allowed absolute quantification of ^18F accumulation rates that reflect the metabolic rate of the tracer in the heart. Clearance rates are measured during the washout phase of these experiments. Beta-oxidation rates of 9,10[^3H] palmitate were measured by collection of venous effluent samples and separation of titrated water.

O=C(O)CCSCCCCCCCC[18F] [12-[^18F]fluoro-4-thia-dodecanoic acid]
correlation of beta-oxidation rates with uptake rates of the tracer (r): > 0.86

O=C(O)CCSCCCCCCCCCCCC[18F] [Compound 16F4THA, 16-[^18F]Fluoro-4-thia-hexadecanoic acid]
correlation of beta-oxidation rates with uptake rates of the tracer (r): > 0.86
